Some of the results follow.
Tests used:
Experiment in all cases: glycan array binding signal (z-score within array); higher = stronger binding
Conditions in all cases: glycan notation: IUPAC condensed, linker removed
[1] = target: Man(a1-2)Man(a1-3)[Man(a1-2)Man(a1-6)]Man(a1-6)[Man(a1-2)Man(a1-2)Man(a1-3)]Man
How it was run: (§1)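 The binding signal is a Z-score computed within each array and averaged over linkers. Arrays of the same protein sequence at different concentrations or buffers were also averaged together. Data originate from 3228 arrays in the Consortium for Functional Glycomics database, kept only where the protein sequence was available.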

[2] = target: Man(a1-2)Man(a1-3)[Man(a1-2)Man(a1-6)]Man(a1-6)[Man(a1-2)Man(a1-2)Man(a1-3)]Man(b1-4)GlcNAc(b1-4)GlcNAc
How it was run: as §1

[3] = target: Man(a1-2)Man(a1-3)[Man(a1-6)]Man(a1-6)[Man(a1-2)Man(a1-3)]Man(b1-4)GlcNAc(b1-4)GlcNAc
How it was run: as §1

[4] = target: Man(a1-2)Man(a1-6)[Man(a1-3)]Man(a1-6)[Man(a1-2)Man(a1-2)Man(a1-3)]Man
How it was run: as §1

[5] = target: Man(a1-2)Man(a1-6)[Man(a1-3)]Man(a1-6)[Man(a1-2)Man(a1-2)Man(a1-3)]Man(b1-4)GlcNAc(b1-4)GlcNAc
How it was run: as §1

Man(a1-3)[Man(a1-6)]Man = target: Man(a1-3)[Man(a1-6)]Man
How it was run: as §1

[6] = target: Man(a1-3)[Man(a1-6)]Man(a1-6)[Man(a1-2)Man(a1-3)]Man(b1-4)GlcNAc(b1-4)GlcNAc
How it was run: as §1

[7] = target: Man(a1-3)[Man(a1-6)]Man(a1-6)[Man(a1-3)]Man
How it was run: as §1

[8] = target: Man(a1-3)[Man(a1-6)]Man(a1-6)[Man(a1-3)]Man(b1-4)GlcNAc(b1-4)GlcNAc
How it was run: as §1

[9] = target: Man(a1-3)[Man(a1-6)]Man(b1-4)GlcNAc(b1-4)GlcNAc
How it was run: as §1

[10] = target: Man(a1-3)[Man(a1-6)]Man(b1-4)GlcNAc(b1-4)[Fuc(a1-6)]GlcNAc
How it was run: as §1

Man(a1-6)Man = target: Man(a1-6)Man
How it was run: as §1

Man(b1-4)GlcNAc = target: Man(b1-4)GlcNAc
How it was run: as §1

MurNAc(b1-4)GlcNAc = target: MurNAc(b1-4)GlcNAc
How it was run: as §1

Neu5Ac(a2-3)Gal = target: Neu5Ac(a2-3)Gal
How it was run: as §1

[11] = target: Neu5Ac(a2-3)Gal(b1-3)GalNAc
How it was run: as §1

[12] = target: Neu5Ac(a2-3)Gal(b1-3)GalNAc(b1-3)Gal(a1-4)Gal(b1-4)Glc
How it was run: as §1

[13] = target: Neu5Ac(a2-3)Gal(b1-3)GalNAc(b1-4)Gal(b1-4)Glc
How it was run: as §1

[14] = target: Neu5Ac(a2-3)Gal(b1-3)GalNAc(b1-4)[Neu5Ac(a2-3)]Gal(b1-4)Glc
How it was run: as §1

[15] = target: Neu5Ac(a2-3)Gal(b1-3)GalNAc(b1-4)[Neu5Ac(a2-8)Neu5Ac(a2-3)]Gal(b1-4)Glc
How it was run: as §1

[16] = target: Neu5Ac(a2-3)Gal(b1-3)GalNAc6S
How it was run: as §1

[17] = target: Neu5Ac(a2-3)Gal(b1-3)GlcNAc
How it was run: as §1

[18] = target: Neu5Ac(a2-3)Gal(b1-3)GlcNAc(b1-2)Man
How it was run: as §1

[19] = target: Neu5Ac(a2-3)Gal(b1-3)GlcNAc(b1-2)Man(a1-3)[GlcNAc(b1-4)][Neu5Ac(a2-3)Gal(b1-3)GlcNAc(b1-2)Man(a1-6)]Man(b1-4)GlcNAc(b1-4)GlcNAc
How it was run: as §1

[20] = target: Neu5Ac(a2-3)Gal(b1-3)GlcNAc(b1-2)Man(a1-3)[Neu5Ac(a2-3)Gal(b1-3)GlcNAc(b1-2)Man(a1-6)]Man(b1-4)GlcNAc(b1-4)GlcNAc
How it was run: as §1

[21] = target: Neu5Ac(a2-3)Gal(b1-3)GlcNAc(b1-2)[Neu5Ac(a2-3)Gal(b1-3)GlcNAc(b1-4)]Man(a1-6)[Neu5Ac(a2-3)Gal(b1-3)GlcNAc(b1-2)Man(a1-3)]Man(b1-4)GlcNAc(b1-4)GlcNAc
How it was run: as §1

[22] = target: Neu5Ac(a2-3)Gal(b1-3)GlcNAc(b1-3)Gal(b1-3)GlcNAc
How it was run: as §1

[23] = target: Neu5Ac(a2-3)Gal(b1-3)GlcNAc(b1-3)Gal(b1-4)GlcNAc
How it was run: as §1

[24] = target: Neu5Ac(a2-3)Gal(b1-3)GlcNAc(b1-3)GalNAc
How it was run: as §1

[25] = target: Neu5Ac(a2-3)Gal(b1-3)GlcNAc(b1-6)GalNAc
How it was run: as §1

B1: Thrombomodulin Extracellular (Mus musculus), P15306 (protein)
chain: MLGIFFLGVLAPASLGLSALAKLQPTGSQCVEHECFALFQGPATFLDASQACQRLQGHLMTVRSSVAADVISLLLSQSSMDLGPWIGLQLPQGCDDPVHLGPLRGFQWVTGDNHTSYSRWARPNDQTAPLCGPLCVTVSTATEAAPGEPAWEEKPCETETQGFLCEFYFTASCRPLTVNTRDPEAAHISSTYNTPFGVSGADFQTLPVGSSAAVEPLGLELVCRAPPGTSEGHWAWEATGAWNCSVENGGCEYLCNRSTNEPRCLCPRDMDLQADGRSCARPVVQSCNELCEHFCVSNAEVPGSYSCMCETGYQLAADGHRCEDVDDCKQGPNPCPQLCVNTKGGFECFCYDGYELVDGECVELLDPCFGSNCEFQCQPVSPTDYRCICAPGFAPKPDEPHKCEMFCNETSCPADCDPNSPTVCECPEGFILDEGSVCTDIDECSQGECFTSECRNFPGSYECICGPDTALAGQISKDCDPIPVREDTKEEEGSGEPPVSPTPGSPTGPPSARPVHSGVLIGISIASLSLVVALLALLCHLRKKQGAARAELEYKCASSAKEVVLQHVRTDRTLQKF
- glycan array binding signal (z-score) [1]: 0.249
- glycan array binding signal (z-score) [2]: -0.485
- glycan array binding signal (z-score) [3]: -1.5
- glycan array binding signal (z-score) [4]: 0.499
- glycan array binding signal (z-score) [5]: -0.496
- glycan array binding signal (z-score) (Man(a1-3)[Man(a1-6)]Man): -0.064
- glycan array binding signal (z-score) [6]: -0.148
- glycan array binding signal (z-score) [7]: 2.92
- glycan array binding signal (z-score) [8]: -0.4
- glycan array binding signal (z-score) [9]: 0.517
- glycan array binding signal (z-score) [10]: 0.808
- glycan array binding signal (z-score) (Man(a1-6)Man): -0.543
- glycan array binding signal (z-score) (Man(b1-4)GlcNAc): -0.999
- glycan array binding signal (z-score) (MurNAc(b1-4)GlcNAc): 0.172
- glycan array binding signal (z-score) (Neu5Ac(a2-3)Gal): -0.229
- glycan array binding signal (z-score) [11]: 0.098
- glycan array binding signal (z-score) [12]: -1.15
- glycan array binding signal (z-score) [13]: -0.174
- glycan array binding signal (z-score) [14]: -0.94
- glycan array binding signal (z-score) [15]: -0.672
- glycan array binding signal (z-score) [16]: -1.24
- glycan array binding signal (z-score) [17]: -0.058
- glycan array binding signal (z-score) [18]: 0.039
- glycan array binding signal (z-score) [19]: -0.635
- glycan array binding signal (z-score) [20]: 2.55
- glycan array binding signal (z-score) [21]: -0.011
- glycan array binding signal (z-score) [22]: 0.167
- glycan array binding signal (z-score) [23]: 0.433
- glycan array binding signal (z-score) [24]: 1.75
- glycan array binding signal (z-score) [25]: 1.49

Reference: the supplement of paper PMC8728848
